## Screening data, single-dose tests

The chains behind the UniProt entries cited, without tags or fusion partners. Residues count along the entry.
UniProt I6X8D2, whole entry: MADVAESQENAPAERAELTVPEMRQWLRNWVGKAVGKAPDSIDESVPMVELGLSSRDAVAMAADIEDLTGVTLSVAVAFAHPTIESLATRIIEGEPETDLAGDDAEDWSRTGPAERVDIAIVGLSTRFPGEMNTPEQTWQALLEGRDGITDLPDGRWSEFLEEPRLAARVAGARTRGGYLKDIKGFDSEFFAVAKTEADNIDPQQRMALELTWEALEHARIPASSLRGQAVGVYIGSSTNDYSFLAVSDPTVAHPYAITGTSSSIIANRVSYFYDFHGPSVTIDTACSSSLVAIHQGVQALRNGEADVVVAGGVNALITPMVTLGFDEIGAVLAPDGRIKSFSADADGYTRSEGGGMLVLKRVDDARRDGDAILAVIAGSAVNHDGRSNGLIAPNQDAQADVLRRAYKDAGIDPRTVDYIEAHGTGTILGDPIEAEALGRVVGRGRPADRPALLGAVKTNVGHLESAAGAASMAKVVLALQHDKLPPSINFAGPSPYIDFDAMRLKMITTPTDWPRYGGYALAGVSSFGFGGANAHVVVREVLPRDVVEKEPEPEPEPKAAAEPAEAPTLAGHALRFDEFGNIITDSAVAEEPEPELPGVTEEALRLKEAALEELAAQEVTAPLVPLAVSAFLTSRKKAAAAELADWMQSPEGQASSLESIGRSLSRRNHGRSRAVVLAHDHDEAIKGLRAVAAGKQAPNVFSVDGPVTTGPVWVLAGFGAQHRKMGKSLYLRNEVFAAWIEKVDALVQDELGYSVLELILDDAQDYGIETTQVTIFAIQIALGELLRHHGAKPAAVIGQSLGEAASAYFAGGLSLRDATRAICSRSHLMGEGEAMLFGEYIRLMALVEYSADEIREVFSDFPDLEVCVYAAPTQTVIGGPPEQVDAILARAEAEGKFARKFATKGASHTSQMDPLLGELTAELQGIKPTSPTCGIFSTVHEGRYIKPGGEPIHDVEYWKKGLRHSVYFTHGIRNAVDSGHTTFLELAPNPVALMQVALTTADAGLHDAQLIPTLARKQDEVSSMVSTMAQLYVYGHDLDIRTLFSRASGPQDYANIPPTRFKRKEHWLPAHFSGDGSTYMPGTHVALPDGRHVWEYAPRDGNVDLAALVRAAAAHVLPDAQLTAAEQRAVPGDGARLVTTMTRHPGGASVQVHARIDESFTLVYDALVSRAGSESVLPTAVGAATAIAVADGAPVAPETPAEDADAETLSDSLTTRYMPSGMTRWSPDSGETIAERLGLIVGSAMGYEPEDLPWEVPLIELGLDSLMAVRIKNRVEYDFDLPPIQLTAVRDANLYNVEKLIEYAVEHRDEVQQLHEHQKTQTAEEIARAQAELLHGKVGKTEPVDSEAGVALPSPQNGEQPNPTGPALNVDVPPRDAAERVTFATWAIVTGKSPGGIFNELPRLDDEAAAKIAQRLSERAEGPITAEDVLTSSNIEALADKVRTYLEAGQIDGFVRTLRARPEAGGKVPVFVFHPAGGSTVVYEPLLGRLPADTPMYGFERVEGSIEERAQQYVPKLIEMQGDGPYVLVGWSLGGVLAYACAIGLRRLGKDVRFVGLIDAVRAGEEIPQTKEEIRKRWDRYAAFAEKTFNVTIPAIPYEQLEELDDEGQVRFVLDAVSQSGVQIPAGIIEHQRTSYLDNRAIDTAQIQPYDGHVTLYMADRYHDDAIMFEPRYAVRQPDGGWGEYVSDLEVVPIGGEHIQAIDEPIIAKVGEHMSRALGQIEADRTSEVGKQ
UniProt A4I591, 1-473: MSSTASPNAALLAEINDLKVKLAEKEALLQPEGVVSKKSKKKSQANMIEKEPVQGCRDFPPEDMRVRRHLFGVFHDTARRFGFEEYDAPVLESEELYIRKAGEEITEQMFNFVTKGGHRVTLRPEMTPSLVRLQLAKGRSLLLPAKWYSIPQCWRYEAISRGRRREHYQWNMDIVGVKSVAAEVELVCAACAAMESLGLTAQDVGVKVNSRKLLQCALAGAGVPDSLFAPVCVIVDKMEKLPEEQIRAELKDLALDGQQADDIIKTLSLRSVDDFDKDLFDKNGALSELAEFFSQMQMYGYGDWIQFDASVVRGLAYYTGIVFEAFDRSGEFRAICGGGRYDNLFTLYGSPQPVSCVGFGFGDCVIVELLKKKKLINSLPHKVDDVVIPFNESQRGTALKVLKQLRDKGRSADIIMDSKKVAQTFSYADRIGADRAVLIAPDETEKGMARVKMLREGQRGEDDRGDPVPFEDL

Source: ChEMBL document CHEMBL3988442, “University of Dundee, Small-Polar-MMV Screening Library” (2021).

Pks13 thioesterase: 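Enzyme assay of the thioesterase domain of polyketide synthase 13; the read-out is not stated. Target: Polyketide synthase Pks13, Mycobacterium tuberculosis (UniProt I6X8D2). Concentration: 30 µM. Higher reads as stronger inhibition (inferred from which compounds were picked for retests). Of about 67,000 compounds tested this way, about 300 (0.46%) reached 50% or more in at least one test.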
LiHisRS: 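Enzyme assay of histidyl-tRNA synthetase; the read-out is not stated. Target: Histidine-tRNA ligase, Leishmania infantum (UniProt A4I591). Concentration: 30 µM. Direction is inferred from retests: higher values go with stronger inhibition. The assay is labelled LdHisRS but filed under L. infantum. Of about 69,000 compounds tested this way, about 410 (0.6%) reached 50% or more in at least one test.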

Results are given as percent effect.
The record does not define 0% and 100%; most values in the screen are far below 50% and negative numbers occur (in some assays of this library far below -100).
Compounds were drawn at random from those tested, without regard to their results.

- O=C(CN(C1=NCCCC1)c1ccccc1)c1ccccc1 | Pks13 thioesterase: -35.47%; LiHisRS: -2.857%
- CN(C)C(=O)C1CCCN(C(=O)c2ccccc2-n2cc(CN)cn2)C1 (stereo not drawn) | LiHisRS: 7.042%
- Cc1cc(N2CCCC(c3n[nH]c4ncccc34)C2)ncn1 (stereo not drawn) | Pks13 thioesterase: 2.87%; LiHisRS: 7.246%
- CC(C)CN1C[C@@H]2OCC(=O)N(Cc3nccn3C)[C@@H]2C1 | Pks13 thioesterase: -13.47%; LiHisRS: 22.97%
- COc1cccc(CN2CCC3(CCN(C(=O)[C@H]4CCCO4)CC3)C2)c1 | Pks13 thioesterase: 11.31%; LiHisRS: 24.39%
- Cn1c(C2CC2)nc2c1CCN(CCc1ccccn1)C2 | Pks13 thioesterase: -41.43%; LiHisRS: 2.857%
- CC(O)CN1CCN(Cc2cccc(C(=O)N(C)C)c2)CC1 (stereo not drawn) | Pks13 thioesterase: -8.994%; LiHisRS: 9.231%
- Cc1cc(C(=O)N2CCC3(C2)CN(c2cccnc2)C(=O)CN3C)[nH]n1 (stereo not drawn) | Pks13 thioesterase: -4.28%; LiHisRS: 18.06%
- O=C([C@@H]1CCS(=O)(=O)[C@@H]2CN(c3ncccn3)C[C@@H]21)N1CCOCC1 | Pks13 thioesterase: 0%; LiHisRS: 19.8%
- COc1ccc2cc(C3CN(C(=O)COC(C)C)CCO3)ccc2c1 (stereo not drawn) | Pks13 thioesterase: 4.511%; LiHisRS: 1.887%
- CC1(C(=O)N2CCN(c3cnccn3)CC2)CNCCO1 (stereo not drawn) | Pks13 thioesterase: 2.266%; LiHisRS: 5.755%
- CC(=O)N1CCCC(c2nccnc2Nc2nc(C)cc(C)n2)C1 (stereo not drawn) | Pks13 thioesterase: -11.45%; LiHisRS: 5.369%
- CN1CC(c2ccccc2)CC12CCN(C(=O)c1ccncc1)CC2 (stereo not drawn) | Pks13 thioesterase: -2.247%; LiHisRS: 19.44%
- CCCSCC(=O)N1CCN(c2ccc(OC)cc2)CC1C (stereo not drawn) | Pks13 thioesterase: -6.834%; LiHisRS: 10.53%
- COc1c(CNCc2ccnc(N3CCCCC3)c2)c(C)nn1C | Pks13 thioesterase: -30.89%; LiHisRS: 20%
- Cc1ccc(-c2ccnc(NCC3(N(C)C)CCOCC3)n2)c(C)n1 | LiHisRS: -1.429%
- CCc1nnc(CN2CCCCC2Cn2cncn2)o1 (stereo not drawn) | Pks13 thioesterase: -7.224%; LiHisRS: 11.54%
- Cc1ncsc1C(=O)NC1CCN(CCCC#N)CC1 | Pks13 thioesterase: -6.911%; LiHisRS: 7.143%
- CS(=O)(=O)NC[C@]12COC[C@H]1CN(C(=O)CC1CCCC1)C2 | Pks13 thioesterase: -15.8%; LiHisRS: 15.45%
- COc1ccccc1C(O)CNC(=O)Nc1ccccn1 (stereo not drawn) | Pks13 thioesterase: -13.46%; LiHisRS: 3.39%
- Cc1cc(C#N)ccc1S(=O)(=O)N1CCN(C)Cc2ccccc21 | Pks13 thioesterase: 8.694%; LiHisRS: 14.91%
- COCCCNC(=O)c1ccccc1S(C)(=O)=O | Pks13 thioesterase: -5.448%; LiHisRS: 2.74%
- CN(Cc1ccccc1)C(=O)CCN1CCC2(CC1)[C@H](O)C[C@@H]2O | Pks13 thioesterase: -8.779%; LiHisRS: 10.83%
- O=C(Cc1ccsc1)N1CCCC(c2n[nH]c3ncccc23)C1 (stereo not drawn) | Pks13 thioesterase: 36.43%; LiHisRS: -1.042%
- Cc1cn2c(n1)C(CNCC1=Cc3ccccc3OC1)CCC2 (stereo not drawn) | Pks13 thioesterase: 6.101%; LiHisRS: 18.92%
- COc1ccccc1CN(CC1CCCO1)C(=O)c1cc(C)n[nH]1 (stereo not drawn) | Pks13 thioesterase: -22.92%; LiHisRS: 14.29%
- CN(C)S(=O)(=O)N1CCC(OCCCc2ccccc2)C1 (stereo not drawn) | Pks13 thioesterase: -24.56%; LiHisRS: 9.244%
- COc1ccc2c(=O)n(CC3CCNC3)ccc2c1OC (stereo not drawn) | Pks13 thioesterase: -36.2%; LiHisRS: 21.21%
- Cc1nnc(NCc2cccnc2N(C)C)c(C#N)c1C | Pks13 thioesterase: 3.403%; LiHisRS: 15.38%
- CCOC(=O)[C@@H]1[C@H]2CN(C(=O)OC)CCN2C[C@H]1c1ccccc1 | Pks13 thioesterase: 1.238%; LiHisRS: 0%
- CCN(CC)S(=O)(=O)N1CCCC(c2nccn2Cc2cccnc2)C1 (stereo not drawn) | Pks13 thioesterase: -45.96%; LiHisRS: 10.67%
- Cc1cc(CN2CCN(C(=O)C(C)C)[C@@H]3CS(=O)(=O)C[C@@H]32)ccc1F | Pks13 thioesterase: -6.06%; LiHisRS: 24.04%
- COC1COC2(CCN(Cc3ccco3)CC2)C1 (stereo not drawn) | Pks13 thioesterase: -30.59%; LiHisRS: 15.53%
- COc1ccccc1CN1CCCC2(Cc3ccccc3CNC2=O)C1 (stereo not drawn) | Pks13 thioesterase: -14.08%; LiHisRS: 9.655%
- Cc1cc2ncn(C(=O)N3CCCCC3)c2cc1C | Pks13 thioesterase: -2.901%; LiHisRS: 15.6%
- O=C(c1cn(-c2ccccc2C(F)(F)F)nn1)N1CCSCC1 | Pks13 thioesterase: 6.915%; LiHisRS: 25.64%
- COc1ccc(F)cc1CSCC(=O)N(CCC#N)CCC#N | Pks13 thioesterase: -21.73%; LiHisRS: 21.13%
- c1ccc(CCN2CCN(c3ccc4nncn4n3)CC2)cc1 | Pks13 thioesterase: -4.996%; LiHisRS: 28.85%
- O=C(NCCc1c[nH]cn1)C1CCCN(Cc2ccco2)C1 (stereo not drawn) | Pks13 thioesterase: -49.15%; LiHisRS: 3.125%
- CCOCC1CN(Cc2cc(C)on2)Cc2cn(C)nc21 (stereo not drawn) | Pks13 thioesterase: 4.063%; LiHisRS: 25%
- CC(C)c1noc(C2CCCN2C(=O)Cc2cn3ccsc3n2)n1 (stereo not drawn) | Pks13 thioesterase: 3.627%; LiHisRS: 14.52%
- c1cnc(NC[C@H]2OC[C@@H]3CCN(Cc4nccs4)C[C@@H]32)nc1 | Pks13 thioesterase: -7.507%; LiHisRS: 9.722%

The last 3 entries again:

structure,Pks13 thioesterase,LiHisRS
CCOCC1CN(Cc2cc(C)on2)Cc2cn(C)nc21 (stereo not drawn),4.063,25
CC(C)c1noc(C2CCCN2C(=O)Cc2cn3ccsc3n2)n1 (stereo not drawn),3.627,14.52
c1cnc(NC[C@H]2OC[C@@H]3CCN(Cc4nccs4)C[C@@H]32)nc1,-7.507,9.722